In patent US20090247646A1, “USE OF RESVERATROL AND DERIVATIVES THEREOF FOR PROMOTING THE WELLNESS STATE IN MAMMALS” (priority 2006, published 2009):
Further values from the same series stand in other lists.

Test system: gene expression in heart tissue
Test: Genome-wide gene expression in heart tissue of old mice fed a resveratrol-supplemented diet (Affymetrix Mouse Genome 430 2.0 array)
Assay type: in vivo

Measured: Effect of resveratrol on changeing gene expression from old to young profile

Oc1ccc(/C=C/c2cc(O)cc(O)c2)cc1 [resveratrol, 3,4′,5-Trihydroxy-trans-stilbene]
<60%: 1415748_a_at dynactin 5 | 1415801_at gap junction membrane channel protein alpha 1 | 1416601_a_at Down syndrome critical region homolog 1 (human) | 1417729_at myosin, heavy polypeptide 6, cardiac muscle, alpha | 1419088_at tissue inhibitor of metalloproteinase 3 | 1419098_at erythrocyte protein band 7.2 | 1419678_at large tumor suppressor 2 | 1420858_at protein kinase inhibitor, alpha | 1420871_at guanylate cyclase 1, soluble, beta 3 | 1421239_at interleukin 6 signal transducer | 1421828_at karyopherin (importin) alpha 3 | 1421895_at eukaryotic translation initiation factor 2, subunit 3, structural gene X-linked | 1422090_a_at 6-phosphofructo-2-kinase/fructose-2,6-biphosphatase 2 | 1422772_at core 1 UDP-galactose:N-acetylgalactosamine-alpha-R beta 1,3-galactosyltransferase | 1425097_a_at zinc finger protein 106 | 1425533_a_at staufen (RNA binding protein) homolog 2 (Drosophila) | 1426066_a_at dystrobrevin alpha | 1426519_at procollagen-proline, 2-oxoglutarate 4-dioxygenase (proline 4-hydroxylase), alpha 1 polypeptide | 1427610_at desmoplakin | 1429533_at inner membrane protein, mitochondrial
90-100%: 1416525_at speckle-type POZ protein | 1416794_at ADP-ribosylation factor-like 6 interacting protein 2 | 1416973_at sperm specific antigen 1 | 1417539_at solute carrier family 35 (CMP-sialic acid transporter), member 1 | 1417764_at signal sequence receptor, alpha | 1418406_at phosphodiesterase 8A | 1418692_at RAB8A, member RAS oncogene family | 1418768_at optic atrophy 1 homolog (human) | 1418843_at solute carrier family 30 (zinc transporter), member 4 | 1419300_at FMS-like tyrosine kinase 1 | 1419543_a_at Mus musculus similar to splicing factor, arginine/serine-rich (transformer 2 Drosophila homolog) 10 (LOC229280), mRNA | 1420607_at RNA binding motif protein 18 | 1420731_a_at cysteine and glycine-rich protein 2 | 1420971_at ubiquitin protein ligase E3 component n-recognin 1 | 1421102_a_at vesicle-associated membrane protein 3 | 1421116_a_at reticulon 4 | 1423482_at uroporphyrinogen III synthase | 1423627_at NAD(P)H dehydrogenase, quinone 1 | 1424167_a_at phosphomannomutase 1 | 1424314_at PRP3 pre-mRNA processing factor 3 homolog (yeast) | 1425542_a_at protein phosphatase 2, regulatory subunit B (B56), gamma isoform | 1428295_at synaptopodin 2-like | 1428367_at N-deacetylase/N-sulfotransferase (heparan glucosaminyl) 1 | 1428372_at suppression of tumorigenicity 5 | 1428471_at sorbin and SH3 domain containing 1 | 1428645_at guanine nucleotide binding protein, alpha inhibiting 3
70-80%: 1416084_at zinc finger protein 216 | 1416950_at tumor necrosis factor, alpha-induced protein 8 | 1419288_at junction adhesion molecule 2 | 1420533_at guanylate cyclase 1, soluble, alpha 3 | 1420542_at open reading frame 28 | 1420806_at fibroblast growth factor 16 | 1421333_a_at myoneurin | 1421832_at twisted gastrulation homolog 1 (Drosophila) | 1421854_at fibrinogen-like protein 2 | 1421880_at myotubularin related protein 1 | 1421985_a_at eukaryotic translation initiation factor 4E like 3 | 1422690_at serine palmitoyltransferase, long chain base subunit 1 | 1422795_at cullin 3 | 1423413_at N-myc downstream regulated 1 | 1424648_at RAB, member of RAS oncogene family-like 4 | 1425140_at lactamase, beta 2 | 1425631_at protein phosphatase 1, regulatory (inhibitor) subunit 3C | 1425929_a_at ring finger protein 14 | 1426313_at brain and reproductive organ-expressed protein | 1426824_at proteasome (prosome, macropain) activator subunit 4 | 1427902_at serine/arginine repetitive matrix 2
80-90%: 1415704_a_at carnitine deficiency-associated gene expressed in ventricle 3 | 1416706_at ribulose-5-phosphate-3-epimerase | 1416988_at mutS homolog 2 (E. coli) | 1417220_at fumarylacetoacetate hydrolase | 1417442_a_at peroxisomal biogenesis factor 3 | 1417535_at F-box only protein 25 | 1417668_at reticulon 4 interacting protein 1 | 1417734_at neighbor of A-kinase anchoring protein 95 | 1418231_at LIM and senescent cell antigen-like domains 1 | 1419639_at ephrin B2 | 1419662_at osteoglycin | 1420959_at aspartate-beta-hydroxylase | 1421215_a_at sarcolemma associated protein | 1422834_at potassium voltage-gated channel, Shal-related family, member 2 | 1422879_at Mus musculus transcribed sequences | 1423042_at DEAD/H (Asp-Glu-Ala-Asp/His) box polypeptide 3, X-linked | 1423051_at heterogeneous nuclear ribonucleoprotein U | 1423108_at solute carrier family 25 (mitochondrial carnitine/acylcarnitine translocase), member 20 | 1423368_at lysosomal-associated protein transmembrane 4A | 1423720_a_at SAR1a gene homolog 1 (S. cerevisiae) | 1423799_at suppressor of initiator codon mutations, related sequence 1 (S. cerevisiae) | 1426837_at methionyl aminopeptidase 1 | 1426983_at formin binding protein 1 | 1427165_at interleukin 13 receptor, alpha 1 | 1427490_at ATP-binding cassette, sub-family B (MDR/TAP), member 7 | 1428061_at histidine aminotransferase 1 | 1428587_at DNA segment, Chr 7, ERATO Doi 743, expressed | 1429830_a_at CD59a antigen
60-70%: 1416368_at glutathione S-transferase, alpha 4 | 1416408_at acyl-Coenzyme A oxidase 1, palmitoyl | 1416499_a_at dynactin 6 | 1417350_at pallidin | 1417374_at tubulin, alpha 4 | 1417497_at ceruloplasmin | 1417736_at SMC6 structural maintenance of chromosomes 6-like 1 (yeast) | 1418435_at makorin, ring finger protein, 1 | 1418592_at DnaJ (Hsp40) homolog, subfamily A, member 4 | 1419257_at transcription elongation factor A (SII) 1 | 1420629_a_at DnaJ (Hsp40) homolog, subfamily A, member 3 | 1422470_at BCL2/adenovirus E1B 19 kDa-interacting protein 1, NIP3 | 1423089_at tropomodulin 3 | 1423114_at ubiquitin-conjugating enzyme E2D 3 (UBC4/5 homolog, yeast) | 1423652_at HESB like domain containing 2 | 1424126_at aminolevulinic acid synthase 1 | 1424671_at pleckstrin homology domain containing, family F (with FYVE domain) member 1 | 1425158_at T-box 20 | 1426382_at protein phosphatase 1B, magnesium dependent, beta isoform | 1427548_a_at chloride channel, nucleotide-sensitive, 1A | 1428021_at methylcrotonoyl-Coenzyme A carboxylase 2 (beta)
>100%: 1415681_at mitochondrial ribosomal protein L43 | 1415690_at mitochondrial ribosomal protein L27 | 1415713_a_at DEAD (Asp-Glu-Ala-Asp) box polypeptide 24 | 1415735_at damage specific DNA binding protein 1 | 1415763_a_at Mus musculus transcribed sequence | 1415834_at dual specificity phosphatase 6 | 1415838_at tumor differentially expressed 2 | 1415864_at 2,3-bisphosphoglycerate mutase | 1415882_at growth hormone inducible transmembrane protein | 1415966_a_at NADH dehydrogenase (ubiquinone) flavoprotein 1 | 1415989_at vascular cell adhesion molecule 1 | 1416041_at serum/glucocorticoid regulated kinase | 1416066_at CD9 antigen | 1416091_at microtubule-associated protein 4 | 1416194_at cytochrome P450, family 4, subfamily b, polypeptide 1 | 1416320_at SEC22 vesicle trafficking protein-like 2 (S. cerevisiae) | 1416364_at heat shock protein 1, beta | 1416374_at adaptor-related protein complex 3, mu 1 subunit | 1416532_at expressed sequence AI481500 | 1416542_at PHD finger protein 1 | 1416590_a_at RAB34, member of RAS oncogene family | 1416593_at glutaredoxin 1 (thioltransferase) | 1416595_at mitochondrial ribosomal protein S22 | 1416652_at asporin | 1416659_at eukaryotic translation initiation factor 3, subunit 10 (theta) | 1416803_at FK506 binding protein 7 | 1416852_a_at expressed sequence AU040320 | 1416923_a_at BCL2/adenovirus E1B 19 kDa-interacting protein 3-like | 1416958_at nuclear receptor subfamily 1, group D, member 2 | 1417109_at lipocalin 7 | 1417324_at microtubule associated serine/threonine kinase 2 | 1417386_at puromycin-sensitive aminopeptidase | 1417423_at glutamate receptor, ionotropic, N-methyl D-asparate-associated protein 1 (glutamate binding) | 1417480_at f-box only protein 9 | 1417557_at UBX domain containing 1 | 1417673_at growth factor receptor bound protein 14 | 1417868_a_at cathepsin Z | 1417933_at keratin complex 2, basic, gene 8 | 1417964_at adaptor-related protein complex 3, delta subunit | 1418030_at solute carrier organic anion transporter family, member 3a1 | 1418098_at adenylate cyclase 4 | 1418117_at NADH dehydrogenase (ubiquinone) Fe—S protein 4 | 1418181_at protein tyrosine phosphatase 4a3 | 1418401_a_at dual specificity phosphatase 16 | 1418454_at microfibrillar associated protein 5 | 1418502_a_at oxidation resistance 1 | 1418518_at furin (paired basic amino acid cleaving enzyme) | 1418527_a_at neural-salient serine/arginine-rich | 1418589_a_at myeloid leukemia factor 1 | 1418621_at RAB2, member RAS oncogene family | 1418627_at glutamate-cysteine ligase, modifier subunit | 1418701_at armadillo repeat gene deleted in velo-cardio-facial syndrome | 1418835_at pleckstrin homology-like domain, family A, member 1 | 1419041_at DNA segment, Chr 8, Wayne State University 49, expressed | 1419054_a_at protein tyrosine phosphatase, non-receptor type 21 | 1419259_at Ras suppressor protein 1 | 1419295_at cAMP responsive element binding protein 3-like 1 | 1419365_at adaptor-related protein complex 3, sigma 2 subunit | 1419440_at ring finger protein 30 | 1420427_a_at DEAH (Asp-Glu-Ala-His) box polypeptide 32 | 1420889_at holocytochrome c synthetase | 1420900_a_at RAB18, member RAS oncogene family | 1420991_at ankyrin repeat domain 1 (cardiac muscle) | 1421054_at exportin 4 | 1421072_at Iroquois related homeobox 5 (Drosophila) | 1421139_a_at zinc finger protein 386 (Kruppel-like) | 1421197_a_at apoptotic chromatin condensation inducer in the nucleus | 1421441_at angiopoietin | 1421450_a_at mitogen activated protein kinase kinase kinase 4 | 1421654_a_at lamin A | 1421743_a_at poly(rC) binding protein 2 | 1421861_at calsyntenin 1 | 1421871_at SH3-binding domain glutamic acid-rich protein like | 1421962_at DnaJ (Hsp40) homolog, subfamily B, member 5 | 1422375_a_at ADP-ribosyltransferase 1 | 1422414_a_at calmodulin 3 | 1422521_at dynactin 1 | 1422522_at fragile X mental retardation gene 2, autosomal homolog | 1422538_at exotoses (multiple)-like 2 | 1422569_at YY1 transcription factor | 1422811_at solute carrier family 27 (fatty acid transporter), member 1 | 1422842_at 5′-3′ exoribonuclease 2 | 1422845_at calnexin | 1423041_a_at basic leucine zipper and W2 domains 1 | 1423063_at DNA methyltransferase 3A | 1423198_a_at expressed sequence AW011752 | 1423332_at syndecan binding protein | 1423345_at degenerative spermatocyte homolog (Drosophila) | 1423373_at ribonuclease P2 | 1423452_at serine/threonine kinase 17b (apoptosis-inducing) | 1423793_at DNA segment, Chr 2, ERATO Doi 391, expressed | 1424109_a_at glyoxalase 1 | 1424111_at insulin-like growth factor 2 receptor | 1424141_at HECT domain containing 1 | 1424269_a_at Mus musculus similar to myosin light chain, alkali, nonmuscle (LOC383643), mRNA | 1424359_at Mus musculus transcribed sequence with weak similarity to protein ref: NP_061137.1 (H. sapiens) sphingomyelin phosphodiesterase 3, neutral membrane (neutral sphingomyelinase II) [Homo sapiens] | 1424389_at nucleoporin like 1 | 1424538_at ubiquitin-like 4 | 1424622_at heat shock factor 1 | 1424669_at zinc finger, FYVE domain containing 21 | 1424736_at eukaryotic translation elongation factor 2 | 1424776_a_at solute carrier family 25, member 28 | 1425196_a_at histidine triad nucleotide binding protein 2 | 1425280_at transmembrane channel-like gene family 4 | 1425341_at potassium channel, subfamily K, member 3 | 1425702_a_at ectonucleotide pyrophosphatase/phosphodiesterase 5 | 1425745_a_at transforming, acidic coiled-coil containing protein 2 | 1425927_a_at activating transcription factor 5 | 1425956_a_at cytidine and dCMP deaminase domain containing 1 | 1426353_at signal transducer and activator of transcription 6 | 1426403_at ARP1 actin-related protein 1 homolog B (yeast) | 1426465_at discs, large homolog-associated protein 4 (Drosophila) | 1426486_at UBX domain containing 2 | 1426731_at desmin | 1427039_at epsin 1 | 1427052_at acetyl-Coenzyme A carboxylase beta | 1427079_at microtubule-associated protein, RP/EB family, member 3 | 1427432_a_at Mus musculus transcribed sequences | 1428382_at Mus musculus transcribed sequence with moderate similarity to protein ref: NP_033237.1 (M. musculus) SWI/SNF related, matrix associated, actin dependent regulator of chromatin, subfamily c, member . . . | 1428454_at breast carcinoma amplified sequence 3 | 1428563_at DEAD (Asp-Glu-Ala-Asp) box polypeptide 10 | 1428892_at Mus musculus transcribed sequences | 1429139_at zinc finger, A20 domain containing 1 | 1429201_at cylindromatosis (turban tumor syndrome) | 1429348_at sema domain, immunoglobulin domain (Ig), short basic domain, secreted, (semaphorin) 3C
